Source: US5962634A, “IgE antagonists” (Thomas Jefferson University, priority 1997, dated 1999)
At least one peptide structure holds a part that was inferred or is arguable (an end, a ring closure or a residue). Where a SMILES comes first, the peptide text is derived from it. Bridges are numbered along the chain shown (N, C = ends). [ ]: non-standard residue; d: D form.

Tested on: IgE-IgE receptor
Assay: Inhibition of labelled myeloma IgE binding to transfected CHO cells (IgE-IgE receptor)
Conditions: 0.5×10^6 transfected CHO cells, 5 nM labelled myeloma IgE, 1 h at room temperature; peptide 9.324×10^-8 M to 3.73×10^-5 M

`CC[C@H](C)[C@@H]1NC(=O)[C@@H](N)CSSC[C@H](C(=O)O)NC(=O)[C@H](Cc2ccc(O)cc2)NC(=O)[C@H](CCCCN)NC(=O)[C@H](CC(C)C)NC(=O)[C@H](C)NC(=O)[C@H](CCC(=O)O)NC(=O)CNC(=O)[C@H](CC(=O)O)NC(=O)[C@H](CCCCN)NC(=O)[C@H](Cc2ccc(O)cc2)NC(=O)[C@H](Cc2ccc(O)cc2)NC1=O` [D amino acid peptide #1, C-I-Y-Y-K-D-G-E-A-L-K-Y-C^D] (H-CIYYKDGEALKY[dC]-OH; disulfide 1-13) was tested. Which IC50 did it give?
The IC50 was 5.14 µM.
